Publication doi:10.1101/2024.08.06.606759
These are yes or no findings as the source states them, for the method shown. Binding seen in cells or lysates may run through a third protein. Sequences can lack the tags named with a protein.

Target: T1, RIPK4-WT-FLAG (UniProt P57078)
T1 sequence: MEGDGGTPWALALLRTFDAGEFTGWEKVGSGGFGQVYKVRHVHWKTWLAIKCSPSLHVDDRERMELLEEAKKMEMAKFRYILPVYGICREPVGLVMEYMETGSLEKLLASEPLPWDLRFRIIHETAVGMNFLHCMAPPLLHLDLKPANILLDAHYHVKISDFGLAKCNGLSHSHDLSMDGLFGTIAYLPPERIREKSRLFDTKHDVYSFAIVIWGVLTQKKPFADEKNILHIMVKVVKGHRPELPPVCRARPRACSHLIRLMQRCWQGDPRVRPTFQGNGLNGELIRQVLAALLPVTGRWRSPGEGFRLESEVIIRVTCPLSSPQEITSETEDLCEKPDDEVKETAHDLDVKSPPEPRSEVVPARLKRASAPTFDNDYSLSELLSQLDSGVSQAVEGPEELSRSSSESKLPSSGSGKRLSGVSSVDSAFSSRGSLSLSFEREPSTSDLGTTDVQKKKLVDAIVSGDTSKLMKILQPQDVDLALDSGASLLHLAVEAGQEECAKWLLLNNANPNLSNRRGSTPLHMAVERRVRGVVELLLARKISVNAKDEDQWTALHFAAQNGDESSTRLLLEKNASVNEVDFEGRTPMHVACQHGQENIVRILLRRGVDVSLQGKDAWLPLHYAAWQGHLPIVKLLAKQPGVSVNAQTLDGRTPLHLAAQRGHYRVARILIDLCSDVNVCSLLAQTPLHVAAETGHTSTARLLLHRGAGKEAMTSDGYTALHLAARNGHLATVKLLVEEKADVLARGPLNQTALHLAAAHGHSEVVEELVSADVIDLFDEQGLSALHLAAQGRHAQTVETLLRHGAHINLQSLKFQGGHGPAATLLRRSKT
Test: co-IP

- binding: no binding
Substance: MTHFD1-Δ4-HA (domain or fragment)
